Results are given in words; binding and its absence hold for the method and conditions named. In cells and extracts the contact can be indirect. A yes stands for co-enrichment or nearness to the bait. Other partners may have been found. For some of these results: A no says only that the protein was not detected with the bait. For some of these results: Where a sequence is shown, tags or fusion partners need not be part of it. Each block holds one molecule with its values, some of them ahead of it.
Experiments:
[1] = target: SOCS2 bait of the two proteomic screens (Myc-BirA-T7-mSOCS2 or 3xFlag-hSOCS2) (not stated (human or mouse cDNA cloned)) (UniProt O14508); assay: proximity labelling + affinity purification with mass spectrometry; hits of the BioID and Flag AP-MS screens in Flp-In T-Rex 293 (vanadate, MLN4924, doxycycline) for which the text does not tell which of the two methods found them; Bayesian false discovery rate <10%
[2] = target: T1, Myc-BirA-T7-mSOCS2 (mouse) (UniProt O35717); assay: proximity labelling; BioID read by immunoblot: BirA fusions transiently expressed in HeLa cells, lysates purified with streptavidin and probed for the candidate (Supplementary Fig. S1)
T1 sequence: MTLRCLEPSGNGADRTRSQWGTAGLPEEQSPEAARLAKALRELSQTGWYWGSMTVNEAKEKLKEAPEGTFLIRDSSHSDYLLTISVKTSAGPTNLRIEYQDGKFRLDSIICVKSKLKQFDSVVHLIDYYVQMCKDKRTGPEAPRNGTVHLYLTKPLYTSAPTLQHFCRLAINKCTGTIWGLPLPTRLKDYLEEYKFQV

Amino acid sequences for entries named in this document (tags omitted). Residues count along the entry.
UniProt O14508: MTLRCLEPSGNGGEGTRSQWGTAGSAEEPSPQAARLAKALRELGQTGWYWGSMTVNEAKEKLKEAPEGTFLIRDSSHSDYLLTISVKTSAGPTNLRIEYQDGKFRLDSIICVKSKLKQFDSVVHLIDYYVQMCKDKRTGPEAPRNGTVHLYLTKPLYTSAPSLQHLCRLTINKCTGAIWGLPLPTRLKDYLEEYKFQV
UniProt P61201: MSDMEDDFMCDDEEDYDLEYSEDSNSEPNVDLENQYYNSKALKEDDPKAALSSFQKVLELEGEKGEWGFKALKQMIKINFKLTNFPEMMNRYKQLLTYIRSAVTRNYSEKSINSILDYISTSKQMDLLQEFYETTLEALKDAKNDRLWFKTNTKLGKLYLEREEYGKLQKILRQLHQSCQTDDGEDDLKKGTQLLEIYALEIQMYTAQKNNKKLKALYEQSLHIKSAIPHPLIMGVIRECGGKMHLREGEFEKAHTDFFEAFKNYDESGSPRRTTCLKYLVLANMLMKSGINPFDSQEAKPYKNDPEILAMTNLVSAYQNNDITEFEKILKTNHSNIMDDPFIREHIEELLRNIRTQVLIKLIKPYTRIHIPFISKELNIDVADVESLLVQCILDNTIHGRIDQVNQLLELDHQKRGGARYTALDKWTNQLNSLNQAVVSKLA
UniProt P35222: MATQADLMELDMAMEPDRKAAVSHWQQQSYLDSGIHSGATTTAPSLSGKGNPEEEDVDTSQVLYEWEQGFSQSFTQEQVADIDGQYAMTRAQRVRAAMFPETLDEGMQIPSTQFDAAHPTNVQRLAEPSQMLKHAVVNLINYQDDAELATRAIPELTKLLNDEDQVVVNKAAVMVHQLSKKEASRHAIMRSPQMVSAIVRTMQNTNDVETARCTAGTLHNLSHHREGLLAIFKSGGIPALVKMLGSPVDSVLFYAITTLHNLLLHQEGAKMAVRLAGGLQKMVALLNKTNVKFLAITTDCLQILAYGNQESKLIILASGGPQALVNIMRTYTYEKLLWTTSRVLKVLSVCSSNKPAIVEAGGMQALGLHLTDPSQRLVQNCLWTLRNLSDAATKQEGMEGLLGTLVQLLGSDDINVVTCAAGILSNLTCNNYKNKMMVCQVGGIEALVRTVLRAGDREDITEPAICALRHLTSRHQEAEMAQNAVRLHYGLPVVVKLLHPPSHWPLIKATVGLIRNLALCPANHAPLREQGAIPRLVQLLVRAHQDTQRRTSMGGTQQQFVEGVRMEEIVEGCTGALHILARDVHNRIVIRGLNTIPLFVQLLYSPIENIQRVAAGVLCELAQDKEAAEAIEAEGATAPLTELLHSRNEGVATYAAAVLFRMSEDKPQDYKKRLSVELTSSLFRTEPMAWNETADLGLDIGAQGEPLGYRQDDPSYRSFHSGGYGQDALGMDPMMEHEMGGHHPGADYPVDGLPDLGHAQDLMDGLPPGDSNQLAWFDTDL
UniProt Q93034: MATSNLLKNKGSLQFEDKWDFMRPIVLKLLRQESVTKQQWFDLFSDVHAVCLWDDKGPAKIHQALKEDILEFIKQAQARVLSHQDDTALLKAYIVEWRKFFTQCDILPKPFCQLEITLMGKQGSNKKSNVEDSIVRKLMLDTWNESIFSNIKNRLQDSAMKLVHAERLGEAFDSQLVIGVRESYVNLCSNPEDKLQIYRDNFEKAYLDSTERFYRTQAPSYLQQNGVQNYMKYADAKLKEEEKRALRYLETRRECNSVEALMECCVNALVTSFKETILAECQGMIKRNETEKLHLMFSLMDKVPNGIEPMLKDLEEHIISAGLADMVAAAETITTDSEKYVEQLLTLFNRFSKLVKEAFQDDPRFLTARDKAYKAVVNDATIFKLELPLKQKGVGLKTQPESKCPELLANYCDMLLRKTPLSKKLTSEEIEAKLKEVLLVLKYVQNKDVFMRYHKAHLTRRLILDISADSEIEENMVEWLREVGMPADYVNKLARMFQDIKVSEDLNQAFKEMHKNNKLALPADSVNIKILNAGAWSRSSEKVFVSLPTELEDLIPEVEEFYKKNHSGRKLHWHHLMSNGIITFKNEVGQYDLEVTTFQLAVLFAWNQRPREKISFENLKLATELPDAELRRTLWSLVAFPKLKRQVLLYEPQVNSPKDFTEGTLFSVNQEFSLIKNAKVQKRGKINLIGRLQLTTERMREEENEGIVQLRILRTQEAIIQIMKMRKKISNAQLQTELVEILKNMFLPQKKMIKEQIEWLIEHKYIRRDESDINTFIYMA
UniProt P51692: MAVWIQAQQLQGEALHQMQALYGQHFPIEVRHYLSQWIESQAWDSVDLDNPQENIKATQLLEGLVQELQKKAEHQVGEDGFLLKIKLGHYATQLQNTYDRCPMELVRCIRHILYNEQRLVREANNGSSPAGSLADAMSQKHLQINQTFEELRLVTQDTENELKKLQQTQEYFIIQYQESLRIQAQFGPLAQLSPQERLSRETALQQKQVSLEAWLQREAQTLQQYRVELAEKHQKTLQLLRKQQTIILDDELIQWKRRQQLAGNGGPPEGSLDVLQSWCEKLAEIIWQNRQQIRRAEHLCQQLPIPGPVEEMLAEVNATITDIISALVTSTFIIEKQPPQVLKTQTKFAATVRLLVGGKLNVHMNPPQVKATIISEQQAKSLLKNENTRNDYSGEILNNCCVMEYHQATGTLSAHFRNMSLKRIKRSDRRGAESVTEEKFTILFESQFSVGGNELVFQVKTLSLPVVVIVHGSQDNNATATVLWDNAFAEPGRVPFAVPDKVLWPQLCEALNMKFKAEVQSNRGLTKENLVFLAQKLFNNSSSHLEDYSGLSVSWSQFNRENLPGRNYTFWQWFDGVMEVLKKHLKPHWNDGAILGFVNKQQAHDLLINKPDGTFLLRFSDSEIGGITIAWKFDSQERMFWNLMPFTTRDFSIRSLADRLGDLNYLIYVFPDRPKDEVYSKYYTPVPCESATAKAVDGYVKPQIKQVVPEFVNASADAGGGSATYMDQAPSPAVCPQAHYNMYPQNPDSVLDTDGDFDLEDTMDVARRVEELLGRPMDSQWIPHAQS
UniProt Q15370: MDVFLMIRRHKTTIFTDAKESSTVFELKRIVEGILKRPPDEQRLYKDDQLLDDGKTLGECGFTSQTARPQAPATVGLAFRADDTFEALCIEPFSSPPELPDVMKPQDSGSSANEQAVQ
UniProt Q9UMX0: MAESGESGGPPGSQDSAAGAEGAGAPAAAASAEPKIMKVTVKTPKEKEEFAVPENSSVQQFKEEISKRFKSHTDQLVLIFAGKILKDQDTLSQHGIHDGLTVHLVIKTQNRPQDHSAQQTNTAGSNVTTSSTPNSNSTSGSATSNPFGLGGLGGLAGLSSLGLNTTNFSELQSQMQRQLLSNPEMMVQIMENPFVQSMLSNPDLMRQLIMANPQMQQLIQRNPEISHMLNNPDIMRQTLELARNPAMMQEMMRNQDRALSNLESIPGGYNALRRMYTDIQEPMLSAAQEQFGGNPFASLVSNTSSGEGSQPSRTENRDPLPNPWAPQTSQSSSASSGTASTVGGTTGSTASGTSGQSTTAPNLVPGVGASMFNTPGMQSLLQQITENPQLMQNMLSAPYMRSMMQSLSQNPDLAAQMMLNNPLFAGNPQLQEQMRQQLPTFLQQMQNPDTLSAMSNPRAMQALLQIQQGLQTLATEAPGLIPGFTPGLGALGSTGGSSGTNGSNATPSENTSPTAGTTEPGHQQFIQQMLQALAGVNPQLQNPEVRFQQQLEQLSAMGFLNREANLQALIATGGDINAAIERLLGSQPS
UniProt P29317, residues 24-976: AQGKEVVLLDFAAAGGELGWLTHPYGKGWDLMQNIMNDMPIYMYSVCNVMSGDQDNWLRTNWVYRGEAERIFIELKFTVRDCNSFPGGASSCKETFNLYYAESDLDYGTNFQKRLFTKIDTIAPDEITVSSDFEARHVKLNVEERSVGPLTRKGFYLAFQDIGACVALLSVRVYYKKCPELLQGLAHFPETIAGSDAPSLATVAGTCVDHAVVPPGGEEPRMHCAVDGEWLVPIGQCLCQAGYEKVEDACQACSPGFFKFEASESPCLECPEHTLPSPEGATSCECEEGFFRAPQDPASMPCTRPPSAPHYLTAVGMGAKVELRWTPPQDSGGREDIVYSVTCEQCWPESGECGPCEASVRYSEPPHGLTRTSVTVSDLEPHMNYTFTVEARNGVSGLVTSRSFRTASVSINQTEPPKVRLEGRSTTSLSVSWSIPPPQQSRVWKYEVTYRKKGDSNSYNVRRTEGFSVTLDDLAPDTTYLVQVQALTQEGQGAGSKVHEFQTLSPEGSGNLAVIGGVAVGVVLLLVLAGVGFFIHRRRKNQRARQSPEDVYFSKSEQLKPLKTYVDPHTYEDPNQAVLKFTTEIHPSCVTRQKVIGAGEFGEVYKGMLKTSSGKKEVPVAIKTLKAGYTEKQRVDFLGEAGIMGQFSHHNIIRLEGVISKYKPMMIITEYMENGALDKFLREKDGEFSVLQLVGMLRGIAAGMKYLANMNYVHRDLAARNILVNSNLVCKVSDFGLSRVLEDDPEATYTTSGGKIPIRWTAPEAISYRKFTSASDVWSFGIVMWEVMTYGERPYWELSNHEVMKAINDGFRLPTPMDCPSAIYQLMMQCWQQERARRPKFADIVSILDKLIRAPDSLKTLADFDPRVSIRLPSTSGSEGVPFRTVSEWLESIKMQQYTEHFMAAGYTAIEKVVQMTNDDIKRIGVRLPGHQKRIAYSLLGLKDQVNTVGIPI
UniProt Q9UNS2: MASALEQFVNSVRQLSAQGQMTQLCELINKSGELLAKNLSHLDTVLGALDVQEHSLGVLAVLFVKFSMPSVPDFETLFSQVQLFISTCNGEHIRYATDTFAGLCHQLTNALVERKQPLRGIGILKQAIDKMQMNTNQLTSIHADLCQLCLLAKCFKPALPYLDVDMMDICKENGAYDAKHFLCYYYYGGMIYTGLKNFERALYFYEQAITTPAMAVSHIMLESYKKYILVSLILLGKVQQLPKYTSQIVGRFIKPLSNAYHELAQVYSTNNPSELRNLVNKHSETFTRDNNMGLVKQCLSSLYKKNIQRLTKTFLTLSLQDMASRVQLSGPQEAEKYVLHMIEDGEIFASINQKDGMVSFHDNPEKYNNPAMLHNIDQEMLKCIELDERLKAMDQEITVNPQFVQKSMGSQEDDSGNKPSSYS
UniProt P46108: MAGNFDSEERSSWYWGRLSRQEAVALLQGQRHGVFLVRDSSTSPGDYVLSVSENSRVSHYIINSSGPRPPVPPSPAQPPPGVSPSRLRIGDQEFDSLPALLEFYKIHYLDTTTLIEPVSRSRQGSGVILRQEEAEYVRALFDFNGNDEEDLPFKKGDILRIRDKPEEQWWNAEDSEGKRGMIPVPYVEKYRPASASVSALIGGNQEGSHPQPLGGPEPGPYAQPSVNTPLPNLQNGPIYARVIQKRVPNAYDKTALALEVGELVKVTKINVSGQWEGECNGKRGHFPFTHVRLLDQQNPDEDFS
UniProt P15311: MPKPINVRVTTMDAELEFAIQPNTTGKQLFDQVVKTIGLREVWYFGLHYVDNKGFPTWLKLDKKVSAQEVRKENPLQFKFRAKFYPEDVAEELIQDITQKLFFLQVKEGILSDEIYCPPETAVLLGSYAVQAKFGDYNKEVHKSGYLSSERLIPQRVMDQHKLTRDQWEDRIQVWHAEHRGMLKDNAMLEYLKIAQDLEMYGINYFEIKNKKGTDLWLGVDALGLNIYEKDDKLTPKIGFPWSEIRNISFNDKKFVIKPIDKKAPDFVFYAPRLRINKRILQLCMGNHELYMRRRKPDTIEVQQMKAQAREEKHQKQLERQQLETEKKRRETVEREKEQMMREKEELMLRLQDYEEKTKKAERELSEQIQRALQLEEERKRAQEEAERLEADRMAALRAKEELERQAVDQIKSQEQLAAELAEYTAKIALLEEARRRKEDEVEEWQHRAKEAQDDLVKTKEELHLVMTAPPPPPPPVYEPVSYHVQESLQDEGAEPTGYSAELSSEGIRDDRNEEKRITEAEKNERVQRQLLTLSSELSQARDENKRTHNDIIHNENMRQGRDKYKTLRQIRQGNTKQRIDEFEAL
UniProt P04406: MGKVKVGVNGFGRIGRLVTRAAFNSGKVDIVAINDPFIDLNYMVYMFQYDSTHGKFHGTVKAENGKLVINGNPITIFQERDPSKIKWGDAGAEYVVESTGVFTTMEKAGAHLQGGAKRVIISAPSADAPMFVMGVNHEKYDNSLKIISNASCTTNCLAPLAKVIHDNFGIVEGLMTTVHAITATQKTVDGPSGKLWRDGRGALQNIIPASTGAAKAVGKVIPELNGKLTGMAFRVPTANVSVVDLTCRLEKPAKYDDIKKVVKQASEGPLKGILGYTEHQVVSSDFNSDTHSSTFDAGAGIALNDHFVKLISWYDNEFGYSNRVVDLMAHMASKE
UniProt P36543: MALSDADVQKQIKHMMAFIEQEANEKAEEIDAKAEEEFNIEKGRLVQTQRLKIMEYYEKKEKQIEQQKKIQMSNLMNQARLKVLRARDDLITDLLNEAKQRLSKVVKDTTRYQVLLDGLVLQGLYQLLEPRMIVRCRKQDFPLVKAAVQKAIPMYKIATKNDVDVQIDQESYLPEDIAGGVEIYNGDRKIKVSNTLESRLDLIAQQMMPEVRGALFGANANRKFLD

[3] = target: T2, Myc-BirA-T7-mSOCS6 (mouse) (UniProt Q9JLY0); assay: as above
T2 sequence: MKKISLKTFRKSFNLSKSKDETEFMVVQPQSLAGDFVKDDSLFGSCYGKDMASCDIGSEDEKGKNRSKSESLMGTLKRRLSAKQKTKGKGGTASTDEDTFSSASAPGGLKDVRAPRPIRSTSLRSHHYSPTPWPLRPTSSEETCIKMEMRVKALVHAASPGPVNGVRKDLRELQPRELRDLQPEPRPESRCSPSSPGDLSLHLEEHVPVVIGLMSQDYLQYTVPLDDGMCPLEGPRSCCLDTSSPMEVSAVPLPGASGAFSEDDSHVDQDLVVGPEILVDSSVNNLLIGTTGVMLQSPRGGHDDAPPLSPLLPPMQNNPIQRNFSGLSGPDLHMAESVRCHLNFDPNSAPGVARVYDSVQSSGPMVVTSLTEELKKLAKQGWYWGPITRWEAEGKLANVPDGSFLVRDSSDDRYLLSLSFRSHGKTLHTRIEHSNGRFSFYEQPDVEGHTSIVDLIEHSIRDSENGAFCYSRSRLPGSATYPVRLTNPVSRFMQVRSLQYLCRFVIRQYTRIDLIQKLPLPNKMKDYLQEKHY

[4] = target: T2, Myc-BirA-T7-mSOCS6 (mouse); assay: proximity labelling; BioID with LC-MS/MS: Myc-BirA-T7 baits stably integrated in Flp-In T-Rex 293; 75 µM vanadate, 1 µM MLN4924, 1 µg/mL doxycycline and 2 mM biotin for 24 hr; RIPA lysis, streptavidin-Sepharose beads, on-bead trypsin; SAINTq, Bayesian false discovery rate <10%
3xFlag-mSOCS6 (mouse) = target: T3, 3xFlag-mSOCS6 (mouse) (UniProt Q9JLY0); assay: affinity purification with mass spectrometry; Flag AP-MS: 3xFlag baits stably integrated in Flp-In T-Rex 293; 75 µM vanadate, 1 µM MLN4924, 1 µg/mL doxycycline for 24 hr; FLAG-M2 magnetic beads, on-bead trypsin; SAINTq, Bayesian false discovery rate <7.7%
T3 sequence: T2 sequence

BirA-SOCS2^R73K (mouse) = BirA-SOCS2^R73K (mouse) (UniProt O35717); assay: proximity labelling; BioID read by immunoblot: BirA fusions transiently expressed in HeLa cells, lysates purified with streptavidin and probed for the candidate (Supplementary Fig. S1)
[5] = target: T4, SOCS6 bait of the two proteomic screens (Myc-BirA-T7-mSOCS6 or 3xFlag-mSOCS6) (mouse) (UniProt Q9JLY0); assay: proximity labelling + affinity purification with mass spectrometry; hits of the BioID and Flag AP-MS screens in Flp-In T-Rex 293 (vanadate, MLN4924, doxycycline) for which the text does not tell which of the two methods found them; Bayesian false discovery rate <10%
T4 sequence: T2 sequence

[6] = target: T1, Myc-BirA-T7-mSOCS2 (mouse); assay: proximity labelling; BioID read by immunoblot: 293T transiently transfected; 75 µM sodium orthovanadate, 1 µM MLN4924 and 2 mM biotin for 24 hr; streptavidin agarose beads

Molecule: COPS2 (from UniProt P61201 1-443)
binding [1]: binds

Molecule: CTNNB1 (β-catenin) (from UniProt P35222 1-781)
binding [1]: binds
binding [2]: binds
binding [3]: no binding

Molecule: Cullin5 (from UniProt Q93034 1-780)
binding [4]: binds
binding (3xFlag-mSOCS6 (mouse)): binds
binding [3]: binds

Molecule: STAT5b (from UniProt P51692 1-787)
binding [1]: binds

Molecule: TCEB2 (ElgB) (from UniProt Q15370 1-118)
binding [4]: binds
binding (3xFlag-mSOCS6 (mouse)): binds

Molecule: UBQLN1 (PLIC1) (from UniProt Q9UMX0 1-589)
binding [5]: binds

Molecule: WDR40 (human (endogenous in Flp-In T-Rex 293))
binding [5]: binds

Molecule: ephrin type-A receptor 2 (EphA2), endogenous (from UniProt P29317 24-976)
binding [6]: binds
binding [1]: binds
binding [2]: binds
binding [3]: no binding

B1: SCAMP3 (protein, UniProt O14828 1-347)
chain: MAQSRDGGNPFAEPSELDNPFQDPAVIQHRPSRQYATLDVYNPFETREPPPAYEPPAPAPLPPPSAPSLQPSRKLSPTEPKNYGSYSTQASAAAATAELLKKQEELNRKAEELDRRERELQHAALGGTATRQNNWPPLPSFCPVQPCFFQDISMEIPQEFQKTVSTMYYLWMCSTLALLLNFLACLASFCVETNNGAGFGLSILWVLLFTPCSFVCWYRPMYKAFRSDSSFNFFVFFFIFFVQDVLFVLQAIGIPGWGFSGWISALVVPKGNTAVSVLMLLVALLFTGIAVLGIVMLKRIHSLYRRTGASFQKAQQEFAAGVFSNPAVRTAAANAAAGAAENAFRAP
binding [1]: binds

B6: Shroom1 (protein, UniProt Q2M3G4 1-852)
chain: MEALGPGGDRASPASSTSSLDLWHLSMRADSAYSSFSAASGGPEPRTQSPGTDLLPYLDWDYVRVVWGGPGPAPPDAALCTSPRPRPAVAARSGPQPTEVPGTPGPLNRQATPLLYALAAEAEAAAQAAEPPSPPASRAAYRQRLQGAQRRVLRETSFQRKELRMSLPARLRPTVPARPPATHPRSASLSHPGGEGEPARSRAPAPGTAGRGPLANQQRKWCFSEPGKLDRVGRGGGPARECLGEACSSSGLPGPEPLEFQHPALAKFEDHEVGWLPETQPQGSMNLDSGSLKLGDAFRPASRSRSASGEVLGSWGGSGGTIPIVQAVPQGAETPRPLFQTKLSRFLPQKEAAVMYPAELPQSSPADSEQRVSETCIVPAWLPSLPDEVFLEEAPLVRMRSPPDPHASQGPPASVHASDQPYGTGLGQRTGQVTVPTEYPLHECPGTAGADDCWQGVNGSVGISRPTSHTPTGTANDNIPTIDPTGLTTNPPTAAESDLLKPVPADALGLSGNDTPGPSHNTALARGTGQPGSRPTWPSQCLEELVQELARLDPSLCDPLASQPSPEPPLGLLDGLIPLAEVRAAMRPACGEAGEEAASTFEPGSYQFSFTQLLPAPREETRLENPATHPVLDQPCGQGLPAPNNSIQGKKVELAARLQKMLQDLHTEQERLQGEAQAWARRQAALEAAVRQACAPQELERFSRFMADLERVLGLLLLLGSRLARVRRALARAASDSDPDEQASLLQRLRLLQRQEEDAKELKEHVARRERAVREVLVRALPVEELRVYCALLAGKAAVLAQQRNLDERIRLLQDQLDAIRDDLGHHAPSPSPARPPGTCPPVQPPFPLLLT
binding [1]: binds

Second part, the molecule after the results:

binding [1]: binds
Molecule: COPS3 (from UniProt Q9UNS2 1-423)

binding [1]: binds
binding [2]: binds
binding [3]: no binding
Molecule: Crk (from UniProt P46108 1-304)

binding [1]: binds
binding [2]: binds
binding [3]: no binding
Molecule: Ezrin (from UniProt P15311 1-586)

binding (BirA-SOCS2^R73K (mouse)): no binding
Molecule: GAPDH (from UniProt P04406 1-335)

binding [5]: binds
Molecule: WDR28 (human (endogenous in Flp-In T-Rex 293))

binding [1]: binds
Molecule: vacuolar ATPase subunit ATP6V1E1 (from UniProt P36543 1-226)

binding [5]: binds
B2: YWHAH (protein, UniProt Q04917 1-246)
chain: MGDREQLLQRARLAEQAERYDDMASAMKAVTELNEPLSNEDRNLLSVAYKNVVGARRSSWRVISSIEQKTMADGNEKKLEKVKAYREKIEKELETVCNDVLSLLDKFLIKNCNDFQYESKVFYLKMKGDYYRYLAEVASGEKKNSVVEASEAAYKEAFEISKEQMQPTHPIRLGLALNFSVFYYEIQNAPEQACLLAKQAFDDAIAELDTLNEDSYKDSTLIMQLLRDNLTLWTSDQQDEEAGEGN

binding [5]: binds
B3: YWHAQ (protein, UniProt P27348 1-245)
chain: MEKTELIQKAKLAEQAERYDDMATCMKAVTEQGAELSNEERNLLSVAYKNVVGGRRSAWRVISSIEQKTDTSDKKLQLIKDYREKVESELRSICTTVLELLDKYLIANATNPESKVFYLKMKGDYFRYLAEVACGDDRKQTIDNSQGAYQEAFDISKKEMQPTHPIRLGLALNFSVFYYEILNNPELACTLAKTAFDEAIAELDTLNEDSYKDSTLIMQLLRDNLTLWTSDSAGEECDAAEGAEN

binding [1]: binds
binding [5]: binds
B4: DCUN1D5 (DCNL5) (protein, UniProt Q9BTE7 1-237)
chain: MPVKKKRKSPGVAAAVAEDGGLKKCKISSYCRSQPPARLISGEEHFSSKKCLAWFYEYAGPDEVVGPEGMEKFCEDIGVEPENIIMLVLAWKLEAESMGFFTKEEWLKGMTSLQCDCTEKLQNKFDFLRSQLNDISSFKNIYRYAFDFARDKDQRSLDIDTAKSMLALLLGRTWPLFSVFYQYLEQSKYRVMNKDQWYNVLEFSRTVHADLSNYDEDGAWPVLLDEFVEWQKVRQTS

binding [5]: binds
B5: TES (protein, UniProt Q9UGI8 1-421)
chain: MDLENKVKKMGLGHEQGFGAPCLKCKEKCEGFELHFWRKICRNCKCGQEEHDVLLSNEEDRKVGKLFEDTKYTTLIAKLKSDGIPMYKRNVMILTNPVAAKKNVSINTVTYEWAPPVQNQALARQYMQMLPKEKQPVAGSEGAQYRKKQLAKQLPAHDQDPSKCHELSPREVKEMEQFVKKYKSEALGVGDVKLPCEMDAQGPKQMNIPGGDRSTPAAVGAMEDKSAEHKRTQYSCYCCKLSMKEGDPAIYAERAGYDKLWHPACFVCSTCHELLVDMIYFWKNEKLYCGRHYCDSEKPRCAGCDELIFSNEYTQAENQNWHLKHFCCFDCDSILAGEIYVMVNDKPVCKPCYVKNHAVVCQGCHNAIDPEVQRVTYNNFSWHASTECFLCSCCSKCLIGQKFMPVEGMVFCSVECKKRMS

binding [5]: binds
B7: YWHAG (protein, UniProt P61981 1-247)
chain: MVDREQLVQKARLAEQAERYDDMAAAMKNVTELNEPLSNEERNLLSVAYKNVVGARRSSWRVISSIEQKTSADGNEKKIEMVRAYREKIEKELEAVCQDVLSLLDNYLIKNCSETQYESKVFYLKMKGDYYRYLAEVATGEKRATVVESSEKAYSEAHEISKEHMQPTHPIRLGLALNYSVFYYEIQNAPEQACHLAKTAFDDAIAELDTLNEDSYKDSTLIMQLLRDNLTLWTSDQQDDDGGEGNN
